Where a name gives a salt, the structure may show the parent alone. This is one part of the list. This data set is noisy: repeats of one test often differ as much as different tests do.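 Wild-type human LRH-1, a heavily sumoylated nuclear receptor, is tetracycline-inducible in stable JEG3 cells. RT-qPCR measured SUMO-sensitive APOC3 and MUC1 transcripts, which rise with SUMO-less LRH-1 or UBC9 knockdown, versus TBP and DMSO controls. Robust Z-scores beyond ±2 flagged primary hits, followed by toxicity and TBP filtering.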
tested on: JEG3 expressing hLRH-1; experiment: MUC1 transcript change (ddCt vs TBP and DMSO), Z-score over library; higher = higher MUC1 expression; details: 10 µM; time (hr): 24

First: Cc1nc2ccccn2c(=O)c1CCN1CCC(C(=O)c2ccc(F)cc2)CC1 [Pirenperone]
Second: Cc1ccc(/C(=C\CN2CCCC2)c2ccccn2)cc1 [Triprolidine hydrochloride]
The “MUC1 transcript change (Z-score)” value of the first is lower: -0.0641 for the first, 1.46 for the second.

First: COc1cc2nc(N3CCN(C(=O)C4COc5ccccc5O4)CC3)nc(N)c2cc1OC (configuration not stated) [doxazosin mesylate]
Second: COc1cc2nc(N3CCN(C(=O)c4ccco4)CC3)nc(N)c2cc1OC [prazosin hydrochloride]
The “MUC1 transcript change (Z-score)” value of the first is higher: 0.439 for the first, -0.491 for the second.

Compared with `CCCCC(O)c1ccccc1` (configuration not stated) [fenipentol], `CCCC[C@@H](CC)COC(=O)c1ccccc1O` [octisalate] is higher in “MUC1 transcript change (Z-score)” value: 0.401 for the first, 0.782 for the second.

Going from `O=C(O)CCCCC1CCSS1` (configuration not stated) [thioctic acid] to `C=CC(N)CCC(=O)O` (racemic) [(±)-gamma-Vinyl GABA], the “MUC1 transcript change (Z-score)” value falls from 1.24 to 0.84.

Going from `Nc1ccc(S(=O)(=O)Nc2ccnn2-c2ccccc2)cc1` [Sulfaphenazole] to `c1ccc(CN(CC2=NCCN2)c2ccccc2)cc1` [antazoline phosphate], the “MUC1 transcript change (Z-score)” value rises from -1.02 to 0.0812.

Compared with `CO[C@H]1C[C@H](O[C@H]2[C@H](C)O[C@@H](O[C@@H]3/C(C)=C/C[C@@H]4C[C@@H](C[C@]5(C=C[C@H](C)[C@@H](C6CCCCC6)O5)O4)OC(=O)[C@@H]4C=C(C)[C@@H](O)[C@H]5OC/C(=C\C=C\[C@@H]3C)[C@]54O)C[C@@H]2OC)O[C@@H](C)[C@@H]1O` [doramectin], `CC(=O)[C@@]12O[C@](C)(c3ccccc3)O[C@@H]1C[C@H]1[C@@H]3CCC4=CC(=O)CC[C@]4(C)[C@H]3CC[C@@]12C` [algestone acetophenide] is higher in “MUC1 transcript change (Z-score)” value: 0.0164 for the first, 0.214 for the second.

First: CC(=O)/N=c1\sc(S(N)(=O)=O)nn1C [methazolamide]
Second: CS(=O)(=O)c1ccc([C@@H](O)[C@@H](CF)NC(=O)C(Cl)Cl)cc1 [florfenicol]
The “MUC1 transcript change (Z-score)” value of the first is lower: -0.0821 for the first, 0.926 for the second.

First: CC(CCc1ccc(O)cc1)NCC(O)c1ccc(O)cc1 (configuration not stated) [ractopamine hydrochloride]
Second: CC(C)NCC(O)COc1cccc2ccccc12 (racemic) [(±)-Propranolol hydrochloride]
The “MUC1 transcript change (Z-score)” value of the first is lower: -1.24 for the first, -1.15 for the second.

Going from `CC(C)C(=O)Nc1ccc([N+](=O)[O-])c(C(F)(F)F)c1` [flutamide] to `FC(F)(F)C(Cl)Br` (configuration not stated) [halothane], the “MUC1 transcript change (Z-score)” value rises from 0.279 to 0.886.

Compared with `CCOC(N)=O` [urethane], `C[Se]CC[C@H](N)C(=O)O` [selenomethionine] is higher in “MUC1 transcript change (Z-score)” value: 0.357 for the first, 0.604 for the second.

Going from `OCCN(CCO)c1nc(N2CCCCC2)c2nc(N(CCO)CCO)nc(N3CCCCC3)c2n1` [Dipyridamole] to `CC(=O)OCC(=O)NCCCOc1cccc(CN2CCCCC2)c1` [roxatidine acetate hydrochloride], the “MUC1 transcript change (Z-score)” value rises from -0.645 to -0.147.

Compared with `CC(=O)SCC(Cc1ccccc1)C(=O)NCC(=O)OCc1ccccc1` (configuration not stated) [racecadotril], `CC(C(=O)O)c1cccc(Oc2ccccc2)c1` (configuration not stated) [fenoprofen] is lower in “MUC1 transcript change (Z-score)” value: 0.664 for the first, -0.451 for the second.

Going from `N[C@@H](CC(=O)N1CCn2c(nnc2C(F)(F)F)C1)Cc1cc(F)c(F)cc1F` [sitagliptin monophosphate monohydrate] to `OC1(c2ccc(Cl)c(C(F)(F)F)c2)CCN(CCCC(c2ccc(F)cc2)c2ccc(F)cc2)CC1` [penfluridol], the “MUC1 transcript change (Z-score)” value falls from 1.52 to 0.869.

Going from `Oc1ccc2ccccc2c1` [beta-naphthol] to `NC(=O)c1ccccc1O` [salicylamide], the “MUC1 transcript change (Z-score)” value falls from 0.256 to 0.169.

First: CC[C@@H]1OC(OC(c2c[nH]cn2)C(NC(=O)c2nc(C(CC(N)=O)NCC(N)C(N)=O)nc(N)c2C)C(=O)NC(C)C(O)C(C)C(=O)NC(C(=O)NCCc2nc(-c3nc(C(=O)NCCCCN=C(N)N)cs3)cs2)C(C)O)[C@@H](O[C@H]2O[C@H](CO)[C@@H](O)[C@H](OC(N)=O)[C@@H]2O)[C@@H](C)[C@@H]1C (some centres not stated) [bleomycin (bleomycin b2 shown)]
Second: CCCCC/C=C/CCC(=O)N[C@H]1[C@H](Oc2c3cc4cc2Oc2ccc(cc2Cl)[C@@H](O[C@@H]2O[C@H](CO)[C@@H](O)[C@H](O)[C@H]2NC(C)=O)[C@@H]2NC(=O)[C@H](NC(=O)[C@@H]4NC(=O)[C@H]4NC(=O)C(Cc5ccc(c(Cl)c5)O3)NC(=O)[C@H](N)c3ccc(O)c(c3)Oc3cc(O)cc4c3)c3ccc(O)c(c3)-c3c(OC4O[C@H](CO)[C@@H](O)[C@H](O)[C@@H]4O)cc(O)cc3[C@@H](C(=O)O)NC2=O)O[C@H](CO)[C@@H](O)[C@@H]1O (some centres not stated) [teicoplanin [a(2-1) shown]]
The “MUC1 transcript change (Z-score)” value of the first is lower: -1.06 for the first, 0.4 for the second.

Compared with `C=C1CC[C@H](O)C/C1=C/C=C1\CCC[C@]2(C)[C@@H]([C@H](C)CCCC(C)C)CC[C@@H]12` [cholecalciferol], `CC(=O)S[C@@H]1CC2=CC(=O)CC[C@]2(C)[C@H]2CC[C@@]3(C)[C@@H](CC[C@@]34CCC(=O)O4)[C@H]12` [spironolactone] is lower in “MUC1 transcript change (Z-score)” value: 0.27 for the first, -0.269 for the second.

Compared with `CCc1cn(C2OCC(O)C2CO)c(=O)[nH]c1=O` (configuration not stated) [edoxudine], `O=C1CC[C@@H](C(=O)N2CSC[C@H]2C(=O)O)N1` [pidotimod] is higher in “MUC1 transcript change (Z-score)” value: 0.356 for the first, 0.379 for the second.

Compared with `NNCCc1ccccc1` [phenelzine sulfate], `O=C(CCCl)NCc1ccccc1` [beclamide] is lower in “MUC1 transcript change (Z-score)” value: 0.929 for the first, 0.669 for the second.

Going from `CN(C)c1ccc(C(=C2C=CC(=[N+](C)C)C=C2)c2ccc(N(C)C)cc2)cc1` [gentian violet] to `CN(C)CCC=C1c2ccccc2C=Cc2ccccc21` [cyclobenzaprine hydrochloride], the “MUC1 transcript change (Z-score)” value falls from 0.076 to -1.85.

Going from `CN1CCC(=C2c3ccccc3CCc3sccc32)CC1` [pizotyline malate] to `CN1CCN(CC/C=C2/c3ccccc3Sc3ccc(S(=O)(=O)N(C)C)cc32)CC1` [thiothixene], the “MUC1 transcript change (Z-score)” value rises from -0.258 to 0.06.

Compared with `O=C(OCC(O)CO)c1ccccc1Nc1ccnc2cc(Cl)ccc12` (configuration not stated) [glafenine], `CCN(CC)Cc1ccc(Nc2ccnc3cc(Cl)ccc23)cc1O` [amodiaquine dihydrochloride] is lower in “MUC1 transcript change (Z-score)” value: 0.524 for the first, -0.428 for the second.

Compared with `CN1CCN(CC(=O)N2c3ccccc3C(=O)Nc3cccnc32)CC1` [Pirenzepine dihydrochloride], `CN1CCN(C(c2ccccc2)c2ccccc2)CC1` [cyclizine] is lower in “MUC1 transcript change (Z-score)” value: 0.415 for the first, -0.224 for the second.

Going from `O=C(c1ccc(OCCN2CCCCC2)cc1)c1c(-c2ccc(O)cc2)sc2cc(O)ccc12` [raloxifene hydrochloride] to `Oc1ccc(C2CNCCc3c2cc(O)c(O)c3Cl)cc1` (configuration not stated) [fenoldipam mesylate], the “MUC1 transcript change (Z-score)” value falls from 0.849 to -0.771.

First: OC(Cn1cncn1)(Cn1cncn1)c1ccc(F)cc1F [fluconazole]
Second: N#Cc1ccc(C(c2ccc(C#N)cc2)n2cncn2)cc1 [letrozole]
The “MUC1 transcript change (Z-score)” value of the first is higher: 0.654 for the first, -0.747 for the second.

Compared with `O=C(O)CCNC(=O)c1ccc(N=Nc2ccc(O)c(C(=O)O)c2)cc1` [balsalazide disodium], `NC(=O)c1cc[n+](CC2=C(C(=O)O)N3C(=O)C(NC(=O)C(c4ccccc4)S(=O)(=O)[O-])C3SC2)cc1` (configuration not stated) [cefsulodin sodium] is higher in “MUC1 transcript change (Z-score)” value: -0.363 for the first, 1.58 for the second.

Going from `NCCc1c[nH]cn1` [Histamine dihydrochloride] to `CCCc1ncc(C[n+]2ccccc2C)c(N)n1` [amprolium], the “MUC1 transcript change (Z-score)” value rises from 0.0626 to 0.736.

Compared with `CCCOc1cc(N)ccc1C(=O)OCCN(CC)CC` [propoxycaine hydrochloride], `CCCCN(CCCC)CCCOC(=O)c1ccc(N)cc1` [butacaine] is higher in “MUC1 transcript change (Z-score)” value: -0.642 for the first, 0.641 for the second.

Compared with `CC(=O)[C@@]1(O)CC[C@H]2[C@@H]3C=C(Cl)C4=CC(=O)[C@@H]5C[C@@H]5[C@]4(C)[C@H]3CC[C@@]21C` [cyproterone], `CC(=O)O[C@]1(C(C)=O)CCC2C3C=C(Cl)C4=CC(=O)CC[C@]4(C)C3CC[C@@]21C` (some centres not stated) [chlormadinone acetate] is higher in “MUC1 transcript change (Z-score)” value: -0.17 for the first, 0.459 for the second.

Going from `CC[N+](C)(C)c1cccc(O)c1` [edrophonium chloride] to `CC(C)(C)NCC(O)COc1cccc2c1C[C@H](O)[C@H](O)C2` (some centres not stated) [nadolol], the “MUC1 transcript change (Z-score)” value rises from -0.554 to 0.61.

Going from `CC(=O)OCC(=O)[C@@]1(O)CC[C@H]2[C@@H]3CCC4=CC(=O)C=C[C@]4(C)[C@@]3(Cl)[C@@H](Cl)C[C@@]21C` [dichlorisone acetate] to `CC(=O)OCC(=O)[C@@]1(O)CC[C@H]2[C@@H]3CCC4=CC(=O)CC[C@]4(C)[C@@]3(F)[C@@H](O)C[C@@]21C` [fludrocortisone acetate], the “MUC1 transcript change (Z-score)” value rises from -1.85 to -1.56.

Going from `CC(O)CN(CCN(CC(C)O)CC(C)O)CC(C)O` (configuration not stated) [editol] to `CCCCCN(C)CCC(O)(P(=O)(O)O)P(=O)(O)O` [ibandronate sodium], the “MUC1 transcript change (Z-score)” value falls from 0.68 to -1.74.

Compared with `CN(C)c1cnccn1` [ampyzine sulfate], `CCN(CC)CCCC(C)Nc1ccnc2cc(Cl)ccc12` (configuration not stated) [Chloroquine phosphate] is higher in “MUC1 transcript change (Z-score)” value: 0.727 for the first, 1.16 for the second.

Compared with `CCCCCCOC(=O)NC(=N)c1ccc(NCc2nc3cc(C(=O)N(CCC(=O)OCC)c4ccccn4)ccc3n2C)cc1` [dabigatran etexilate mesylate], `CCO/C(O)=C1/C(C)=NC(C)=C(C(=O)OC)C1c1cccc(Cl)c1Cl` (configuration not stated) [felodipine] is higher in “MUC1 transcript change (Z-score)” value: -0.672 for the first, -0.277 for the second.

Compared with `C[C@]12CCC(=O)C=C1CCC1C2C(=O)C[C@@]2(C)C1CC[C@]2(O)C(=O)CO` (some centres not stated) [cortisone], `CC(C)(C)NCC(O)COc1cccc2c1CCC(=O)N2` (configuration not stated) [carteolol hydrochloride] is lower in “MUC1 transcript change (Z-score)” value: 0.586 for the first, 0.187 for the second.

First: N=C(N)NC(=O)c1nc(Cl)c(N)nc1N [Amiloride hydrochloride]
Second: N[C@@H](CC(=O)O)C(=O)O [L-Aspartic acid]
The “MUC1 transcript change (Z-score)” value of the first is higher: 1.16 for the first, 0.86 for the second.

First: FCOC(C(F)(F)F)C(F)(F)F [sevoflurane]
Second: Oc1c(Br)cc(Br)c2cccnc12 [broxyquinoline]
The “MUC1 transcript change (Z-score)” value of the first is lower: 0.832 for the first, 1.56 for the second.
